# Data as given in PubChem BioAssay AID248 (DTP/NCI, 2004).
# The list shows only some results of the screen, not a fair sample: it gathers tests that were run many times, whatever their T/C, doses with no T/C, and many T/C values between a quarter and a half above the control. Further doses and runs are listed elsewhere. T/C is the treated group as % of the vehicle group. Some entries give survivors of the animals treated and no T/C: the source files T/C as zero there, which appears to mark a toxic dose or a test without result, not a measured value. Some survivor counts are full or nearly so, which does not show that the dose was tolerated: the source hardly ever lists a survival T/C far under the control, and the zero likely stands for such cases as well. Counts of survivors are from the toxicity check (mostly the fifth day) where no day follows; animals may have died later. Schedules are NCI's codes, read here as Q, the interval in days (D) or hours (H), X, the number of doses. Some entries were tested several times; the results are listed from low to high. Some schedules carry Z or #; the key to these is not given. For survival time, this PubChem deposit counts one and a half times the control or more as active, and values a quarter to a half above the control carry no call in these data; other NCI protocols may use other cut-offs. Some T/C values are followed by the survivors on the day toxicity was checked, most often the fifth; where none is given, no animal had died by that day.
# Tested on: L1210 leukemia ip in BDF1 mice, survival T/C
# Test: NCI In Vivo Anticancer Drug Screen. Data for tumor model L1210 Leukemia (intraperitoneal) in B6D2F1 (BDF1) mice
# Settings: T/C endpoint: mean survival time, higher T/C = longer survival
# [1] = dose: 16.6 mg/kg/injection, schedule: Q01DX009 (ip), vehicle: carboxymethylcellulose (CMC)
# [2] = dose: 400.0 mg/kg/injection, schedule: Q04DX002 (ip), vehicle: Klucel (hydroxypropylcellulose) (HPC)
# [3] = dose: 80.0 mg/kg/injection, schedule: Q01DX001 (ip), vehicle: saline
# [4] = dose: 200.0 mg/kg/injection, schedule: Q01DX001 (ip), vehicle: saline
# [5] = dose: 400.0 mg/kg/injection, schedule: Q01DX001 (ip), vehicle: saline
# [6] = dose: 100.0 mg/kg/injection, schedule: Q01DX009 (ip), vehicle: saline with Tween-80
# [7] = dose: 200.0 mg/kg/injection, schedule: Q01DX009 (ip), vehicle: saline with Tween-80
# [8] = dose: 400.0 mg/kg/injection, schedule: Q01DX009 (ip), vehicle: saline with Tween-80
# [9] = dose: 400.0 mg/kg/injection, schedule: Q04DX003 (ip), vehicle: saline
# [10] = dose: 200.0 mg/kg/injection, schedule: Q01DX009 (ip), vehicle: Klucel (hydroxypropylcellulose) (HPC)
smiles,measurement,setting,value
CCOC(=O)Cc1c[nH]c2ccc(N(CCCl)CCCl)cc12,T/C,"dose: 0.28 mg/kg/injection, schedule: Q01DX009 (ip), vehicle: carboxymethylcellulose (CMC)",128 % of control
same,T/C,"dose: 0.7 mg/kg/injection, schedule: Q01DX009 (ip), vehicle: carboxymethylcellulose (CMC)",140 % of control
same,T/C,"dose: 1.1 mg/kg/injection, schedule: Q01DX009 (ip), vehicle: carboxymethylcellulose (CMC)",140 % of control [4 of 6 alive]
same,T/C,"dose: 2.2 mg/kg/injection, schedule: Q01DX009 (ip), vehicle: carboxymethylcellulose (CMC)",145 % of control
same,T/C,"dose: 4.8 mg/kg/injection, schedule: Q01DX009 (ip), vehicle: carboxymethylcellulose (CMC)",128 % of control
same,T/C,"dose: 11.0 mg/kg/injection, schedule: Q01DX009 (ip), vehicle: carboxymethylcellulose (CMC)",126 % of control
same,T/C,"dose: 11.1 mg/kg/injection, schedule: Q01DX001 (ip), vehicle: carboxymethylcellulose (CMC)",125 % of control
same,T/C,"dose: 16.6 mg/kg/injection, schedule: Q01DX001 (ip), vehicle: carboxymethylcellulose (CMC)",138 % of control
same,T/C,[1],127 % of control
same,survivor count,[1],6 of 6
same,T/C,"dose: 25.0 mg/kg/injection, schedule: Q01DX001 (ip), vehicle: carboxymethylcellulose (CMC)",130 % of control
same,survivor count,"dose: 25.0 mg/kg/injection, schedule: Q01DX009 (ip), vehicle: carboxymethylcellulose (CMC)",0 of 6 and 3 of 6
same,survivor count,"dose: 37.5 mg/kg/injection, schedule: Q01DX009 (ip), vehicle: carboxymethylcellulose (CMC)",1 of 6
same,survivor count,"dose: 50.0 mg/kg/injection, schedule: Q01DX001 (ip), vehicle: carboxymethylcellulose (CMC)",2 of 4
same,survivor count,"dose: 100.0 mg/kg/injection, schedule: Q01DX001 (ip), vehicle: carboxymethylcellulose (CMC)",2 of 4
CC(=O)Oc1ccc(N2CC=C(c3ccccc3)CC2)cc1,survivor count,[2],3 of 3
COc1ccc2nc3cc(Cl)ccc3c(Nc3ccc(O)c(CN(CCCl)CCCl)c3)c2c1,T/C,"dose: 0.6 mg/kg/injection, schedule: Q01DX Z (ip), vehicle: saline",126 % of control
same,T/C,"dose: 1.2 mg/kg/injection, schedule: Q01DX Z (ip), vehicle: saline",128 % of control
same,T/C,"dose: 2.4 mg/kg/injection, schedule: Q01DX Z (ip), vehicle: saline",129 % of control
same,survivor count,"dose: 15.0 mg/kg/injection, schedule: Q04DX003 (ip), vehicle: saline",0 of 6
same,survivor count,"dose: 30.0 mg/kg/injection, schedule: Q04DX003 (ip), vehicle: saline",2 of 6
same,survivor count,"dose: 40.0 mg/kg/injection, schedule: Q01DX001 (ip), vehicle: saline",3 of 4
same,survivor count,"dose: 50.0 mg/kg/injection, schedule: Q04DX003 (ip), vehicle: saline",1 of 6
same,survivor count,[3],2 of 4
same,survivor count,"dose: 100.0 mg/kg/injection, schedule: Q04DX003 (ip), vehicle: saline",1 of 6
same,survivor count,[4],3 of 4
same,survivor count,"dose: 200.0 mg/kg/injection, schedule: Q04DX003 (ip), vehicle: saline",0 of 6
same,survivor count,[5],0 of 4
CC1=CC(=O)c2c(O)ccc(O)c2C1=O,survivor count,[3],2 of 6
O=C1c2ccccc2C(=O)N1c1cc(=O)[nH]c(=O)[nH]1,survivor count,"dose: 100.0 mg/kg/injection, schedule: Q04DX003 (ip), vehicle: Klucel (hydroxypropylcellulose) (HPC)",2 of 6
Nc1nc(N)c2nc(CNc3ccc(CC(=O)NC(CC(=O)O)C(=O)O)cc3)cnc2n1 (stereo not drawn),T/C,"dose: 200.0 mg/kg/injection, schedule: Q01DX009 (ip), vehicle: sodium bicarbonate",129 % of control
Cc1ccc(Cc2c(C=O)nc(N)[nH]c2=O)c2ccccc12,survivor count,[2],1 of 3
CCCCC(CCCC)c1ccccn1,survivor count,[6],3 of 6
same,survivor count,[7],3 of 6
same,survivor count,[8],0 of 6
C=C1c2[nH]c3ccccc3c2C2C(CC)C1CCN2C (stereo not drawn),survivor count,"dose: 75.0 mg/kg/injection, schedule: Q01DX Z (ip), vehicle: olive oil, sesame oil, peanut oil",3 of 6
same,survivor count,"dose: 100.0 mg/kg/injection, schedule: Q01DX Z (ip), vehicle: olive oil, sesame oil, peanut oil",4 of 7
same,survivor count,"dose: 150.0 mg/kg/injection, schedule: Q01DX Z (ip), vehicle: olive oil, sesame oil, peanut oil",0 of 7
COc1ccc(CCN(C)C(C)C2C3CC4CC(C3)CC2C4)cc1OC (stereo not drawn),survivor count,[9],0 of 3
CC(C)=CN1CC2CCCC(CC2)C1,survivor count,"dose: 400.0 mg/kg/injection, schedule: Q04DX003 (ip), vehicle: Klucel (hydroxypropylcellulose) (HPC)",1 of 6
Nc1ccncc1,survivor count,"dose: 50.0 mg/kg/injection, schedule: Q01DX001 (ip), vehicle: saline",3 of 6
same,survivor count,"dose: 100.0 mg/kg/injection, schedule: Q01DX001 (ip), vehicle: saline",0 of 6
same,survivor count,[4],0 of 6
O=c1c(Cl)c(C(Cl)(Cl)Cl)[nH]c2ccccc12,survivor count,"dose: 100.0 mg/kg/injection, schedule: Q01DX001 (ip), vehicle: saline with Tween-80",0 of 6
N=C(N)SCCN1CCCCC1,survivor count,"dose: 300.0 mg/kg/injection, schedule: Q01DX001 (ip), vehicle: acetone",0 of 6
Nc1nc(C=O)c(Cc2ccc(Br)cc2)c(=O)[nH]1,survivor count,[7],2 of 6
same,survivor count,[8],0 of 6
C[N+](C)(C)c1ncnc2[n-]cnc12,T/C,"dose: 100.0 mg/kg/injection, schedule: Q01DX015 (ip), vehicle: saline",125 % of control
same,survivor count,"dose: 200.0 mg/kg/injection, schedule: Q01DX015 (ip), vehicle: saline",3 of 6
same,survivor count,"dose: 400.0 mg/kg/injection, schedule: Q01DX015 (ip), vehicle: saline",0 of 6
O=C1CCC2(CCCCC2)N1,survivor count,[6],0 of 6
same,survivor count,[7],0 of 6
same,survivor count,[8],0 of 6
O=S(=O)(O)N(O)S(=O)(=O)O,survivor count,[9],3 of 3
CC(=O)Nn1cnc2c(SCc3ccccc3)ncnc21,T/C,"dose: 400.0 mg/kg/injection, schedule: Q01DX001 (ip), vehicle: other",132 [5 of 6 alive] and 134 % of control
same,survivor count,"dose: 600.0 mg/kg/injection, schedule: Q01DX001 (ip), vehicle: other",0 of 6
Cc1cncc2c(=O)n(-c3ccccc3)n(C)c12,survivor count,[10],3 of 3
NC(N)=Nc1ccccc1,survivor count,[9],1 of 3
C1OC1C[N+]12CN3CN(CN(C3)C1)C2 (stereo not drawn),survivor count,"dose: 400.0 mg/kg/injection, schedule: Q01DX009 (ip), vehicle: saline",0 of 3
Cc1cccc(C)c1NC(=S)NC1CC(C)CC(C)(C)C1 (stereo not drawn),survivor count,"dose: 100.0 mg/kg/injection, schedule: Q01DX009 (ip), vehicle: Klucel (hydroxypropylcellulose) (HPC)",6 of 6
same,survivor count,[10],6 of 6
same,survivor count,"dose: 400.0 mg/kg/injection, schedule: Q01DX009 (ip), vehicle: Klucel (hydroxypropylcellulose) (HPC)",0 of 6
CC12OC1(C)C1(C)C3(C)OC3(C)C21C (stereo not drawn),survivor count,"dose: 400.0 mg/kg/injection, schedule: Q01DX001 (ip), vehicle: Klucel (hydroxypropylcellulose) (HPC)",3 of 6
NNC(=O)c1ccccc1,survivor count,"dose: 100.0 mg/kg/injection, schedule: Q04DX003 (ip), vehicle: saline with Tween-80",6 of 6
same,survivor count,[4],0 of 4
same,survivor count,"dose: 200.0 mg/kg/injection, schedule: Q04DX003 (ip), vehicle: saline with Tween-80",0 of 6
same,survivor count,[5],0 of 4
CC[C@]1(O)C[C@H](OC2CC(N(C)C)C(OC3CC(O)C(O)C(C)O3)C(C)O2)c2c(cc3c(c2O)C(=O)c2c(O)ccc(O)c2C3=O)[C@H]1C(=O)OC (stereo partly drawn),T/C,"dose: 12.8 mg/kg/injection, schedule: Q01DX001 (ip), vehicle: Klucel (hydroxypropylcellulose) (HPC)",129 % of control
